Reference: article doi:10.1101/2023.11.30.569392
Changes are numbered by the printed parent chain. Where two headings read alike, the source gives them in different places. These are yes or no findings as the source states them, for the method shown. Binding seen in cells or lysates may run through a third protein. A yes stands for co-enrichment or nearness to the bait. Other partners may have been found. For some assays here: No binding means not detected with the bait. For some assays here: Where a sequence is shown, tags or fusion partners need not be part of it.

Amino acid sequences for entries named in this document (tags omitted).
UniProt Q96F86: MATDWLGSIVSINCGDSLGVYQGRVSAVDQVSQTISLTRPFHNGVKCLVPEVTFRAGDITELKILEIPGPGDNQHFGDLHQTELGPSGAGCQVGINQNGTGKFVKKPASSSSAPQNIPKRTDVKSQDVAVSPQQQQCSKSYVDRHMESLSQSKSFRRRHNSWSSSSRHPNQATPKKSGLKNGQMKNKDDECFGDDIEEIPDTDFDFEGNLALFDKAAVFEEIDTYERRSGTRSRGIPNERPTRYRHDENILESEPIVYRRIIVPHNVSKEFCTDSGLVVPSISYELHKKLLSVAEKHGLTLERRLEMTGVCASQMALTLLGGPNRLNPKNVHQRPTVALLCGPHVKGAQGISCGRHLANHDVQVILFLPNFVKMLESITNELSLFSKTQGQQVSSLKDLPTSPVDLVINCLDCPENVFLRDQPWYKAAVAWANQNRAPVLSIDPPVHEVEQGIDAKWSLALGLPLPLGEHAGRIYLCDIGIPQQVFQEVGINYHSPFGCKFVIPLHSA
UniProt Q8IZH2: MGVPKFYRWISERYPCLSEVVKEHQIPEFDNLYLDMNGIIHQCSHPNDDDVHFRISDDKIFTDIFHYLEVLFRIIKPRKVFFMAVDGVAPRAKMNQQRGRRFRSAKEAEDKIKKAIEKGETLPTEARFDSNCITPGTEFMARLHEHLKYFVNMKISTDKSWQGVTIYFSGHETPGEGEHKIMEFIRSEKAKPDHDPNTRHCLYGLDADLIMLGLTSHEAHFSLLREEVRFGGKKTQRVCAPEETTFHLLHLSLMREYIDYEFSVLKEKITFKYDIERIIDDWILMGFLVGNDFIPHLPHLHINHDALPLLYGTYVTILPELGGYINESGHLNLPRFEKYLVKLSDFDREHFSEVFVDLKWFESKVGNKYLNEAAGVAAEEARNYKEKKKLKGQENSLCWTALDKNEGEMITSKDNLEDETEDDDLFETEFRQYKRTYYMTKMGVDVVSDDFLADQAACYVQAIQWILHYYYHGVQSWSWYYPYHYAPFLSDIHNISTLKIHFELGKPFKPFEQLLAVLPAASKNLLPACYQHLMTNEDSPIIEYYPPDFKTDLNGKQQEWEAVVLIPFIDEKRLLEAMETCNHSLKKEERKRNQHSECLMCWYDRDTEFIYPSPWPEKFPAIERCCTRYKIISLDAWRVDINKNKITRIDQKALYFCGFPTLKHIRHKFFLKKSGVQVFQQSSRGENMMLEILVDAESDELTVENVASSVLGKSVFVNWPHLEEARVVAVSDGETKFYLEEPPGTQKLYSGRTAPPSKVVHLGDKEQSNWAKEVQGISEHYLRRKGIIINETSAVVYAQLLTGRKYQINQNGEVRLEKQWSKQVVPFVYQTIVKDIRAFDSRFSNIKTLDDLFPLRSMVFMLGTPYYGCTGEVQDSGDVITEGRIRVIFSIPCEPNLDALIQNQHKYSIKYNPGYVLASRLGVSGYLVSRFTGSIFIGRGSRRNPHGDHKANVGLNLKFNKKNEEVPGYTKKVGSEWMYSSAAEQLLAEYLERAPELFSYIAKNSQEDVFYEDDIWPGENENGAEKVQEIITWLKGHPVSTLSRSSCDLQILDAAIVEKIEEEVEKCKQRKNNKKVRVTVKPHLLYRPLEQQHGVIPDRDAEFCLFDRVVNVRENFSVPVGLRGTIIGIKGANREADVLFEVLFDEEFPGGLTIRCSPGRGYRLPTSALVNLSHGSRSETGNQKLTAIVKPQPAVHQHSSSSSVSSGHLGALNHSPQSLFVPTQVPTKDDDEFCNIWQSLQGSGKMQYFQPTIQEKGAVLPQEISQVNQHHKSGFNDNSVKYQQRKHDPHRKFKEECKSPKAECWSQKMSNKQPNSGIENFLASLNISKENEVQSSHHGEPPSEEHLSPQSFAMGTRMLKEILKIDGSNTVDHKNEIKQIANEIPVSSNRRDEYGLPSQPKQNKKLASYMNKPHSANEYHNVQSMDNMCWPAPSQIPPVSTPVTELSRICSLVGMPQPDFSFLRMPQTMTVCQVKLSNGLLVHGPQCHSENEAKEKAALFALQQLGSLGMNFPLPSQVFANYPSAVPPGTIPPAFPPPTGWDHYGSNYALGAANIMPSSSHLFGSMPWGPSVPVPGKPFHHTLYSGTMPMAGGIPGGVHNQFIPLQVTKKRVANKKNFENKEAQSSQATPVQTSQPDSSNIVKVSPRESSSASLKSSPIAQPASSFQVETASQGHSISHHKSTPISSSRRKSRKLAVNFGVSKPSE
UniProt O75175: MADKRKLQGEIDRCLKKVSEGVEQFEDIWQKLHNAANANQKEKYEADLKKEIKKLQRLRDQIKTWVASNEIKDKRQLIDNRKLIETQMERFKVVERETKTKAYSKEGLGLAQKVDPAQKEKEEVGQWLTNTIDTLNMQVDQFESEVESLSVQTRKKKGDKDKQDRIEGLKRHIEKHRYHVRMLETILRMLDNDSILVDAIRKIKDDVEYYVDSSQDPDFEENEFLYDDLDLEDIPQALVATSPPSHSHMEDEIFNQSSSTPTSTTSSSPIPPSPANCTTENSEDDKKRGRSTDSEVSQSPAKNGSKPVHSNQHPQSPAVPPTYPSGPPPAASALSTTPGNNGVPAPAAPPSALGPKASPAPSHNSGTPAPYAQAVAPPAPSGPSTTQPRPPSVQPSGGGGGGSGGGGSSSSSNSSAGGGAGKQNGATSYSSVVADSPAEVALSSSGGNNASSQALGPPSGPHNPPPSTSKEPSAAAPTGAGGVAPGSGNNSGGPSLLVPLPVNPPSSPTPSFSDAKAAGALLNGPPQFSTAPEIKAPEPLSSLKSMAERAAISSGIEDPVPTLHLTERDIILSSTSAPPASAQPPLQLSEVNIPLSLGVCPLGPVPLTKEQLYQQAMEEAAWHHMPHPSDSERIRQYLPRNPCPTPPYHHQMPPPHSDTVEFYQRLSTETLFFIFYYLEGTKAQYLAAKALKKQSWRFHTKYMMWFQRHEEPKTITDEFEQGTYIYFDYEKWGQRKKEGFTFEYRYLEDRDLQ
UniProt Q96QE3: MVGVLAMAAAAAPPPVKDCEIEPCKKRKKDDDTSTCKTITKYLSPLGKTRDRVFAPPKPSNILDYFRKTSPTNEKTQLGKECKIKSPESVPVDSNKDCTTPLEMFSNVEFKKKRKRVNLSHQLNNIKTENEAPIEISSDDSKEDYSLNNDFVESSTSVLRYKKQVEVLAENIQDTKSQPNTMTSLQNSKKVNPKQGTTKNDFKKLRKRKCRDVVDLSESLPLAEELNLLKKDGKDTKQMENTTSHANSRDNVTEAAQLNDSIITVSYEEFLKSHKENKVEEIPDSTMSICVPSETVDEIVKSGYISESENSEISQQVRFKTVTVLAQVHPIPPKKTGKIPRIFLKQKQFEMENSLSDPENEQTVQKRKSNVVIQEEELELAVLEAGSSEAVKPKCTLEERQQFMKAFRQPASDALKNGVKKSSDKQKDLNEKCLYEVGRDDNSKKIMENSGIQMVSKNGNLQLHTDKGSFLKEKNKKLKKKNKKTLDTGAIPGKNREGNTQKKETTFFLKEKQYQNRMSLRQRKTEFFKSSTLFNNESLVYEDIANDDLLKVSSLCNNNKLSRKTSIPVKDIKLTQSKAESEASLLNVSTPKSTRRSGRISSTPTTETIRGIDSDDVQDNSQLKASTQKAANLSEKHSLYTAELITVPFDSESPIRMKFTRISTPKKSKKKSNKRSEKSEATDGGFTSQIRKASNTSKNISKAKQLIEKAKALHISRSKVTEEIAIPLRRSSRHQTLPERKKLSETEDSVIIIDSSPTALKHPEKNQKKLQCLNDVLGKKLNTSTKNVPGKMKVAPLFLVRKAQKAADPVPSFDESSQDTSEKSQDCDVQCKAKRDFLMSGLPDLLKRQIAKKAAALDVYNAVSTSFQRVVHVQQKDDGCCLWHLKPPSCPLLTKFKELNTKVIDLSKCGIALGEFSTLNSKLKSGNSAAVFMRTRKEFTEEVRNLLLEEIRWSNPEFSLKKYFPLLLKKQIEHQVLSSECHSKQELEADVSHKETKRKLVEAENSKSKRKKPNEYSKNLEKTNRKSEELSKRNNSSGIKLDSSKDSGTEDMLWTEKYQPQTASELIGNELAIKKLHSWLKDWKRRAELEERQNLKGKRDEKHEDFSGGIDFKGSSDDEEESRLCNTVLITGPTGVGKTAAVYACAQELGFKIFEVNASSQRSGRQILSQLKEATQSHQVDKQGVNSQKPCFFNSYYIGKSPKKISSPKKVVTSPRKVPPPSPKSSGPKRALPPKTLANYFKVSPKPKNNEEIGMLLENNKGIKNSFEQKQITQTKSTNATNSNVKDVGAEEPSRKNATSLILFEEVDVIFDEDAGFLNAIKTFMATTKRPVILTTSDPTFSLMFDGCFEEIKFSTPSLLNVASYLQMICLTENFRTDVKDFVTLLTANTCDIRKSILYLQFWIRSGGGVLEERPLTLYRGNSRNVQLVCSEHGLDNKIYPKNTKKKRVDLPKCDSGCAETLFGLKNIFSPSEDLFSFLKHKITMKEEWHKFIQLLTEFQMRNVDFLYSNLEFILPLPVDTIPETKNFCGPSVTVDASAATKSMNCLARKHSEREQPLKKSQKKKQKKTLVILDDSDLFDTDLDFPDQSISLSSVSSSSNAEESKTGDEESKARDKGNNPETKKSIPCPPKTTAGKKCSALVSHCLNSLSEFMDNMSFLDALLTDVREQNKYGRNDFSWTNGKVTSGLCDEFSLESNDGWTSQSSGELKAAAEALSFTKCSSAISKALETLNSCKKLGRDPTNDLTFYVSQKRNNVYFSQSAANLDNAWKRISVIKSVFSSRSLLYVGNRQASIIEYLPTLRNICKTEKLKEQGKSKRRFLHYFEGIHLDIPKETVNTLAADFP

Key:
[1] = biological target: T1, WT-APX (murine wild-type TTP fused N-terminally to APEX2) (mouse) (UniProt P22893); assay: proximity labelling
T1 sequence: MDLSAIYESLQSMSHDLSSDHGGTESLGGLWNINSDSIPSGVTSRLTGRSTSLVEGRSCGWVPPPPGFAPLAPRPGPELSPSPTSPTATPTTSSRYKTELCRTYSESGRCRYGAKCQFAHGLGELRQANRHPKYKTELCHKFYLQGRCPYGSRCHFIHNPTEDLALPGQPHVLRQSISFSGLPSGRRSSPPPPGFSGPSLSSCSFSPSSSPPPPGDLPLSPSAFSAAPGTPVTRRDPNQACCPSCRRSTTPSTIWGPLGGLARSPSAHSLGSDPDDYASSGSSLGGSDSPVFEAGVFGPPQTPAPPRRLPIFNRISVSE

[2] = biological target: T1, WT-APX (murine wild-type TTP fused N-terminally to APEX2) (mouse); assay: condition: only cells treated with anisomycin
[3] = biological target: L1 TZF^mut-APX (RNA binding-deficient ZFP36L1 TZF^mut fused N-terminally to APEX2) (mouse) (UniProt P23950); assay: proximity labelling
[4] = biological target: T1, WT-APX (murine wild-type TTP fused N-terminally to APEX2) (mouse); assay: proximity labelling; remark: listed apart in the source
[5] = biological target: T2, L1 WT-APX (ZFP36L1 WT fused N-terminally to APEX2) (mouse) (UniProt P23950); assay: proximity labelling
T2 sequence: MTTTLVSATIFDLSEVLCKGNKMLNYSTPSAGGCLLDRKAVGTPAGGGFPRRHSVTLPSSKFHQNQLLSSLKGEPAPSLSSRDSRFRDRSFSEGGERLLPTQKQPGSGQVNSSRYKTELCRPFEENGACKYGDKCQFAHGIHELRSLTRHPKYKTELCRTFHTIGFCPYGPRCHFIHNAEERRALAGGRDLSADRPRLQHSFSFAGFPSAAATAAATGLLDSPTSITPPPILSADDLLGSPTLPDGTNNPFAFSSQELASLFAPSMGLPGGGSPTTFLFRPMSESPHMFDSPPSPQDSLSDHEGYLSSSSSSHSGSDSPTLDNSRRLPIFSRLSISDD

[6] = biological target: T3, TZF^mut-APX (RNA binding-deficient tandem zinc finger TTP mutant C116R/C139R fused N-terminally to APEX2) (mouse) (UniProt P22893); assay: proximity labelling
T3 sequence: T1 sequence with C116R, C139R

[7] = biological target: T3, TZF^mut-APX (RNA binding-deficient tandem zinc finger TTP mutant C116R/C139R fused N-terminally to APEX2) (mouse); assay: proximity labelling; remark: listed apart in the source
[8] = biological target: T1, WT-APX (murine wild-type TTP fused N-terminally to APEX2) (mouse); assay: proximity labelling; remark: listed apart in the source
[9] = biological target: L1 TZF^mut-APX (RNA binding-deficient ZFP36L1 TZF^mut fused N-terminally to APEX2) (mouse) (UniProt P23950); assay: proximity labelling; remark: listed apart in the source
[10] = biological target: T2, L1 WT-APX (ZFP36L1 WT fused N-terminally to APEX2) (mouse); assay: proximity labelling; remark: listed apart in the source

With EDC3 (from UniProt Q96F86 1-508) the binding [1] was “binds”, the binding [2] was “no binding” and the binding [3] was “no binding”. The binding [4] was “binds” and the binding [5] was “binds”.

In the case of “XRN1 exonuclease (from UniProt Q8IZH2 1-1706)”, the binding [6] is reported as “no binding”, the binding [2] is reported as “no binding” and the binding [7] is reported as “no binding”. The binding [4] was “binds”.

In the case of DCP2 (from UniProt Q8IU60 1-420), the binding [6] is reported as “no binding”, the binding [2] is reported as “no binding” and the binding [7] is reported as “no binding”. For the same molecule, the binding [4] was “binds”.

CNOT3 (from UniProt O75175 1-753) was tested, and the binding [3] was “no binding” and the binding [5] was “binds”.

ATAD5 (from UniProt Q96QE3 1-1844) was tested, and the binding [4] was “binds”.

B1: NFATC1 (protein, UniProt O95644 1-943)
chain: MPSTSFPVPSKFPLGPAAAVFGRGETLGPAPRAGGTMKSAEEEHYGYASSNVSPALPLPTAHSTLPAPCHNLQTSTPGIIPPADHPSGYGAALDGGPAGYFLSSGHTRPDGAPALESPRIEITSCLGLYHNNNQFFHDVEVEDVLPSSKRSPSTATLSLPSLEAYRDPSCLSPASSLSSRSCNSEASSYESNYSYPYASPQTSPWQSPCVSPKTTDPEEGFPRGLGACTLLGSPRHSPSTSPRASVTEESWLGARSSRPASPCNKRKYSLNGRQPPYSPHHSPTPSPHGSPRVSVTDDSWLGNTTQYTSSAIVAAINALTTDSSLDLGDGVPVKSRKTTLEQPPSVALKVEPVGEDLGSPPPPADFAPEDYSSFQHIRKGGFCDQYLAVPQHPYQWAKPKPLSPTSYMSPTLPALDWQLPSHSGPYELRIEVQPKSHHRAHYETEGSRGAVKASAGGHPIVQLHGYLENEPLMLQLFIGTADDRLLRPHAFYQVHRITGKTVSTTSHEAILSNTKVLEIPLLPENSMRAVIDCAGILKLRNSDIELRKGETDIGRKNTRVRLVFRVHVPQPSGRTLSLQVASNPIECSQRSAQELPLVEKQSTDSYPVVGGKKMVLSGHNFLQDSKVIFVEKAPDGHHVWEMEAKTDRDLCKPNSLVVEIPPFRNQRITSPVHVSFYVCNGKRKRSQYQRFTYLPANVPIIKTEPTDDYEPAPTCGPVSQGLSPLPRPYYSQQLAMPPDPSSCLVAGFPPCPQRSTLMPAAPGVSPKLHDLSPAAYTKGVASPGHCHLGLPQPAGEAPAVQDVPRPVATHPGSPGQPPPALLPQQVSAPPSSSCPPGLEHSLCPSSPSPPLPPATQEPTCLQPCSPACPPATGRPQHLPSTVRRDESPTAGPRLLPEVHEDGSPNLAPIPVTVKREPEELDQLYLDDVNEIIRNDLSSTSTHS
With B1 the binding [8] was “binds”.

B2: MAGEB2 (protein, UniProt O15479 1-319)
chain: MPRGQKSKLRAREKRRKARDETRGLNVPQVTEAEEEEAPCCSSSVSGGAASSSPAAGIPQEPQRAPTTAAAAAAGVSSTKSKKGAKSHQGEKNASSSQASTSTKSPSEDPLTRKSGSLVQFLLYKYKIKKSVTKGEMLKIVGKRFREHFPEILKKASEGLSVVFGLELNKVNPNGHTYTFIDKVDLTDEESLLSSWDFPRRKLLMPLLGVIFLNGNSATEEEIWEFLNMLGVYDGEEHSVFGEPWKLITKDLVQEKYLEYKQVPSSDPPRFQFLWGPRAYAETSKMKVLEFLAKVNGTTPCAFPTHYEEALKDEEKAGV
In the case of B2, the binding [8] is reported as “binds”.

B3: EDC4 (protein, UniProt Q6P2E9 1-1401)
chain: MASCASIDIEDATQHLRDILKLDRPAGGPSAESPRPSSAYNGDLNGLLVPDPLCSGDSTSANKTGLRTMPPINLQEKQVICLSGDDSSTCIGILAKEVEIVASSDSSISSKARGSNKVKIQPVAKYDWEQKYYYGNLIAVSNSFLAYAIRAANNGSAMVRVISVSTSERTLLKGFTGSVADLAFAHLNSPQLACLDEAGNLFVWRLALVNGKIQEEILVHIRQPEGTPLNHFRRIIWCPFIPEESEDCCEESSPTVALLHEDRAEVWDLDMLRSSHSTWPVDVSQIKQGFIVVKGHSTCLSEGALSPDGTVLATASHDGYVKFWQIYIEGQDEPRCLHEWKPHDGRPLSCLLFCDNHKKQDPDVPFWRFLITGADQNRELKMWCTVSWTCLQTIRFSPDIFSSVSVPPSLKVCLDLSAEYLILSDVQRKVLYVMELLQNQEEGHACFSSISEFLLTHPVLSFGIQVVSRCRLRHTEVLPAEEENDSLGADGTHGAGAMESAAGVLIKLFCVHTKALQDVQIRFQPQLNPDVVAPLPTHTAHEDFTFGESRPELGSEGLGSAAHGSQPDLRRIVELPAPADFLSLSSETKPKLMTPDAFMTPSASLQQITASPSSSSSGSSSSSSSSSSSLTAVSAMSSTSAVDPSLTRPPEELTLSPKLQLDGSLTMSSSGSLQASPRGLLPGLLPAPADKLTPKGPGQVPTATSALSLELQEVEPLGLPQASPSRTRSPDVISSASTALSQDIPEIASEALSRGFGSSAPEGLEPDSMASAASALHLLSPRPRPGPELGPQLGLDGGPGDGDRHNTPSLLEAALTQEASTPDSQVWPTAPDITRETCSTLAESPRNGLQEKHKSLAFHRPPYHLLQQRDSQDASAEQSDHDDEVASLASASGGFGTKVPAPRLPAKDWKTKGSPRTSPKLKRKSKKDDGDAAMGSRLTEHQVAEPPEDWPALIWQQQRELAELRHSQEELLQRLCTQLEGLQSTVTGHVERALETRHEQEQRRLERALAEGQQRGGQLQEQLTQQLSQALSSAVAGRLERSIRDEIKKTVPPCVSRSLEPMAGQLSNSVATKLTAVEGSMKENISKLLKSKNLTDAIARAAADTLQGPMQAAYREAFQSVVLPAFEKSCQAMFQQINDSFRLGTQEYLQQLESHMKSRKAREQEAREPVLAQLRGLVSTLQSATEQMAATVAGSVRAEVQHQLHVAVGSLQESILAQVQRIVKGEVSVALKEQQAAVTSSIMQAMRSAAGTPVPSAHLDCQAQQAHILQLLQQGHLNQAFQQALTAADLNLVLYVCETVDPAQVFGQPPCPLSQPVLLSLIQQLASDLGTRTDLKLSYLEEAVMHLDHSDPITRDHMGSVMAQVRQKLFQFLQAEPHNSLGKAARRLSLMLHGLVTPSLP
In the case of B3, the binding [9] is reported as “no binding” and the binding [10] is reported as “binds”.
